Measurements reported in article PMC7210767.
Construct, isoform or probe ends are uncertain for at least one entry. Negatives hold for the conditions tested.

Experiments:
[1] = system: GAME9-135A (high-SGA allele); assay: EMSA; settings: poly(dI-dC), 2.5% glycerol, 50 ng/ul poly(dI-dC)), room temperature, 30 min, 6% native PAGE, pH not stated, recombinant protein, protein details: MBP
[2] = system: GAME9-135V (low-SGA allele) (Solanum lycopersicum (AC)); assay: EMSA; settings: poly(dI-dC), text says not able to bind, also summarised as weak binding; 2.5% glycerol, 50 ng/ul poly(dI-dC)), room temperature, 30 min; 6% native PAGE; pH not stated; recombinant protein; protein details: MBP; label: 5'-FAM on sense strand

| Sequence | binding result [1] | binding result ([1]; label: 5'-FAM on sense strand) | binding result [2] |
| --- | --- | --- | --- |
| CACTCAACACATCCATTCAAAAAACACACCCCACTCCCAGCA (double strand) [GAME17 promoter mutant probe (mProbe)] | no binding | – | – |
| CACTCAACACATCCATTCGCCCCCCACACCCCACTCCCAGCA (double strand) [GAME17 promoter GC-rich probe (WT)] | – | binds | no binding |
